# Laboratory results taken from patent US20240009221A1, “PHARMACOLOGIC APPROACH FOR SUPPRESSION OF CORONAVIRUSES” (priority 2020, published 2024).
# For at least one compound, name, drawing or mass did not settle the structure.
# System: human coronavirus OC43
# Test: Suppression of human coronavirus OC43 replication in infected Vero E6 cells (qRT-PCR of OC43 RNA copies in growth media)
# Assay type: cell-based
# Details: Vero E6 cells infected with OC43 (MOI:1); 0.1, 1.0, and 10 μM; 48 hrs post-infection
smiles,measurement,value
"Cc1cc(/C=C/C#N)cc(C)c1Nc1ccnc(Nc2ccc(C#N)cc2)n1 [Rilpivirine, rilpivirine]","OC43 replication (OC43 RNA copies in the growth media, real time qRT-PCR with nucleocapsid (N) primers)",suppressed human coronavirus OC43 replication in a dose dependent manner
